# Source: PubChem BioAssay AID720505 (Drosophila RNAi Screening Center, 2013)
# Test: 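Genes needed for store-operated calcium entry in fly cells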 (primary screen)
# Cells: Drosophila S2R+ cells
# Knock-down reagent: long dsRNA against Drosophila genes
# Challenge: thapsigargin (2 µM) in calcium-free buffer to empty internal stores, then 2 mM calcium added back
# Detection: 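Fluo-4 signal in 384-well plates read on a FLIPR after thapsigargin (2 µM, calcium-free) store depletion and 2 mM calcium add-back; unnormalised mean endpoint per well; screen run twice, selected wells retested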
# Reading the numbers: calcium signal and retest calcium signal: higher = more calcium entry after store depletion
# Active means: 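About 1500 genes called as lowering calcium entry, by varying amounts, judged against per-plate control wells with STIM1 as positive and Rho1 as negative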
# Calls: active = called as lowering calcium entry; inactive = not called
# The screen tested about 20,000 reagents; this is an unselected part of those with a known target gene and a result. Of all reagents, about 2,100 (10%) got an active call. 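Raw plate signals without normalisation; calls rest on control-based scores that were not deposited; replicate 2 separates called from uncalled poorly.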 Entries without a mark were called inactive. Not given: the amount of reagent, the time to read-out.
predicted target,amplicon,"calcium signal, replicate 1","calcium signal, replicate 2","retest calcium signal, replicate 1","retest calcium signal, replicate 2"
CNPYb,DRSC09845,95,90.3,,
CG32847,DRSC22901,84.5,161,,
Myo28B1,DRSC03375,67.5 (active),174,,
AIMP1,DRSC07118,113,98.6,,
Pka-R2,DRSC07509,82.7,103,,
Orc1,DRSC07496,85.3,148,,
Lar,DRSC01707,142,99.1,,
Lar,DRSC03361,100,104,,
Spt6,DRSC18836,68.2 (active),77.3,,
ca,DRSC15305,124,134,,
ca,DRSC15306,115,197,,
ca,DRSC16314,149,193,,
Tgt,DRSC00672,137,296,,
lncRNA:CR42646,DRSC04759,124,112,,
Gpdh1,DRSC03336,98.8,192,110,105
Gpdh1,DRSC21666,154,106,,
rdgBbeta,DRSC07672,170,164,,
Zip71B,DRSC09686,102,156,,
Naa30A,DRSC18583,106,122,,
Naa30A,DRSC23214,85,145,,
alpha-Est4,DRSC12616,122,140,,
mRpL33,DRSC18319,273,109,,
CG4554,DRSC04473,176,139,80.4,95.2
CG7794,DRSC16313,154,119,,
CG16704,DRSC00475,150,85.5,,
ara,DRSC11322,62.3,89.4,,
ara,DRSC22984,114,117,,
eIF4G2,DRSC14207,239,340,,
eIF4G2,DRSC21739,147,89.8,,
CG13722,DRSC08331,85.2,78.1,,
CG13722,DRSC21616,136,92.8,,

Targets above whose target name starts with E or e:
predicted target,amplicon,"calcium signal, replicate 1","calcium signal, replicate 2","retest calcium signal, replicate 1","retest calcium signal, replicate 2"
eIF4G2,DRSC14207,239,340,,
eIF4G2,DRSC21739,147,89.8,,

The listing continues.
predicted target,amplicon,"calcium signal, replicate 1","calcium signal, replicate 2","retest calcium signal, replicate 1","retest calcium signal, replicate 2"
squ,DRSC01549,73,154,,
rtet,DRSC14160,194,396,,
galla-2,DRSC10936,72.6,73.8,6250,82.7
galla-2,DRSC21949,97.5,230,,
CG32006,DRSC21768,178,86.1,,
CG14022,DRSC02352,194,83.2,,
ytr,DRSC04306,104,100,,
ytr,DRSC22073,93.8,258,,
CG15262,DRSC01975,104,115,,
Npc2d,DRSC14551,109,115,,
PIG-C,DRSC08241,85.8,116,,
kud,DRSC11086,120,164,,
ATPsynE,DRSC15476,107,142,,
eys,DRSC00113,112,95.4,,
eys,DRSC00402,151,118,,
eys,DRSC00403,192,135,,
eys,DRSC00695,63 (active),163,,
CG5281,DRSC15761,166,138,,
CG10909,DRSC14282,54.4 (active),207,,
wupA,DRSC20385,89,141,8039,147
wupA,DRSC22547,91.6,135,,
Ptx1,DRSC16804,159,125,,
CalpA,DRSC07352,167,161,,
Dic61B,DRSC08588,124,101,,
SIFaR,DRSC14266,108,93.6,,
